# Library screening results

Data taken from ChEMBL document CHEMBL3988442, “University of Dundee, Small-Polar-MMV Screening Library” (2021).

Each number is a percent effect as filed. How 0% and 100% were set is not recorded. Most values in the screen are low, and negative values occur. This is an unselected part of the compounds tested. A dash means the value is not listed here; it may have been measured.

A: 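Whole-cell assay for inhibitors of Mycobacterium tuberculosis growth, labelled Cornell in the record; the read-out is not stated. The concentration is filed as 10 mM, unlikely as a test dose, so the dose is not known. Higher means stronger inhibition (inferred from two other growth screens of the library). Size under these conditions: about 53,000 compounds, about 900 of them at 50% or above in at least one test.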
B: 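Assay on Mycobacterium tuberculosis, filed only as a heat shock assay from Cornell; the read-out is not stated. The concentration is filed as 10 mM, unlikely as a test dose, so the dose is not known. The record gives no direction; compounds that gave an IC50 in retests scored well above the rest, so higher reads as stronger inhibition. Of about 69,000 compounds tested this way, about 930 (1.4%) reached 50% or more in at least one test.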

| # | compound | A | B |
|---|---|---|---|
| 1 | `Cc1cnc(C(=O)NCC2CCOc3ccccc3C2)cn1` (configuration not stated) | -3.203 | 15.98 |
| 2 | `Cc1cc(C(=O)NCc2ccc(N3CCCC(C(N)=O)C3)cc2)no1` (configuration not stated) | - | -8.747 |
| 3 | `Cc1c(CN2CCCC(n3c(=O)oc4ccccc43)C2)cnn1C` (configuration not stated) | -33.51 | -5.922 |
| 4 | `COc1ccc(OC)c(S(=O)(=O)NCC2(OC)CCSC2)c1` (configuration not stated) | -53.98 | -13.93 |
| 5 | `N#Cc1cccnc1OC1CCN(S(=O)(=O)c2ccc(Br)cc2)CC1` | 13.02 | 20.57 |
| 6 | `CC(C)n1nc(Cn2cccn2)c2c1CN(C1CCOCC1)C2.O=C(O)C(F)(F)F` | -51.12 | -10.64 |
| 7 | `COc1cccc(CC(=O)N2CCC(c3ccn4nccc4n3)CC2)c1` | 47.5 | -21.71 |
| 8 | `Cc1nc(CNCc2cccc(OC34CCCN(CC3)C4)c2)n[nH]1` (configuration not stated) | 22.09 | -9.099 |
| 9 | `Cc1cc(-c2ccc(C(=O)O)cc2)nc(C2CCN(C(C)C)CC2)n1` | -16.31 | -11.08 |
| 10 | `CC1(C)CN(C(=O)Nc2cc(C(F)(F)F)c[nH]c2=O)CCO1` | -6.758 | -0.1995 |
| 11 | `O=C(O)C(F)(F)F.[H][C@@]12CN(CC3CC3)CCO[C@]1([H])CN(C(=O)c1ccn(C)n1)C2` | -2.951 | -23.06 |
| 12 | `CC1(C)CN(Cc2csc(CS(C)(=O)=O)n2)Cc2ccccc21` | 29.61 | 21.19 |
| 13 | `CC(=O)N(Cc1noc(C2CC2)n1)C1CCN(CC(=O)NC2CC2)C1` (configuration not stated) | 5.16 | -10.95 |
| 14 | `CC(C)n1ccnc1C1CCCN(c2cc(C(=O)NC3CC3)ccn2)C1` (configuration not stated) | -19.9 | -7.132 |
| 15 | `O=C(NCCN1CCNC1=O)c1cnc(-c2cccnc2)nc1` | -18.94 | 7.344 |
| 16 | `CCN1CCC(CNc2nccc(C)n2)(N(C)C)CC1` | 12.97 | -0.5351 |
| 17 | `Cc1ccc(O)c(C(=O)N2CCOCC2c2c(C)n[nH]c2C)c1` (configuration not stated) | - | 9.867 |
| 18 | `COc1ccc(S(=O)(=O)NCCC(O)c2ccccc2)c(C)c1` (configuration not stated) | 0.8016 | 23.04 |
| 19 | `CCc1ccc(CN2CCCCC2c2n[nH]cc2-c2cc(C)no2)cc1.Cl` (configuration not stated) | 5.24 | 16.34 |
| 20 | `COc1ccccc1[C@@H]1CN(Cc2c(C)noc2C)C[C@H]1C(=O)O` | 15.66 | -15.67 |
| 21 | `CCOCC1CN(CC2CC2)Cc2nn(C)cc21.O=C(O)C(F)(F)F` (configuration not stated) | 14.51 | -2.707 |
| 22 | `CCN(Cc1noc(C(C)C)n1)Cc1ccc(C#N)cc1F` | 2.838 | -10.18 |
| 23 | `CCOc1ccc(C(=O)N2CCCS2(=O)=O)cc1OC` | -6.607 | -8.397 |
| 24 | `O=C(O)C(F)(F)F.O=C(O)C(F)(F)F.[H][C@@]12CN(Cc3cnn(C)c3)C[C@@]1([H])N(Cc1cccc(C)c1)C(=O)CO2` | 15.29 | -39.36 |
| 25 | `CC(C)c1nc2c(n1C)CCN(CC(=O)Nc1cccnc1)C2` | - | 1.688 |
| 26 | `O=C(NCC1CCCOC1)c1ccc(-c2ccccc2)[nH]c1=O` (configuration not stated) | -8.646 | -31.69 |
| 27 | `Cc1cc(C)n(CC2CCCN2C(=O)c2ccc3nnc(C)n3c2)n1` (configuration not stated) | 12.74 | -12.93 |
| 28 | `CC1CCN(Cc2c(C(C)C)[nH]c3ncccc23)CC1` | 2.904 | 6.545 |
| 29 | `Cc1noc(C)c1CCC(=O)N1CCOCC1CCc1cnccn1` (configuration not stated) | -31.63 | -23.21 |
| 30 | `O=C(c1cnccn1)N1CCCC(C2=Nc3ccccc3S(=O)(=O)N2)C1` (configuration not stated) | 42.5 | -5.464 |
| 31 | `CN(C)C(=O)CN1CCCC2(CCN(c3ccc(C#N)cn3)C2)C1.O=C(O)C(F)(F)F` (configuration not stated) | 4.394 | -2.89 |
| 32 | `Cn1ccnc1SCCNc1cc(N2CCOCC2)ncn1` | - | -20.98 |
| 33 | `CCCc1nc(CN2CCCC2c2cnn(C)c2)cs1` (configuration not stated) | - | -14.14 |
| 34 | `O=C(c1cc(F)cc(F)c1)N1CCC2(CC1)CC2` | -46.73 | -13.29 |
| 35 | `CN(C(=O)CCc1nc(C2CC2)no1)c1cc(C#N)c2ccccc2n1` | 38 | 8.429 |
| 36 | `Cc1nn(C)c2ncnc(N3CCC(O)(CN4CCCC4)CC3)c12` | 3.602 | 16.5 |
| 37 | `Cn1cccc1C(CNC(=O)COc1ccc(Cl)cc1Cl)N1CCCC1` (configuration not stated) | 27.47 | 12.91 |
| 38 | `CN(C)Cc1cnc(C2CCN(C(=O)c3cccc(F)c3)C2)[nH]1` (configuration not stated) | -22.71 | -21.24 |
| 39 | `Cc1csc2c(C3CCCN(C(=O)CCCn4cncn4)C3)nc(C)n12` (configuration not stated) | 6.156 | 8.945 |
| 40 | `N#Cc1ccc(CNC(=O)NCCC(=O)NC2CCCC2)c(F)c1` | - | 7 |
| 41 | `CC(=O)c1cc(CC(=O)NCc2ccsc2)cs1` | - | 12.22 |
| 42 | `O=C(Cn1cc(I)cn1)N1CCc2ccccc2C1` | - | -2.48 |
| 43 | `CCCn1nnnc1CSCc1cn2c(C)cccc2n1` | -13.57 | 6.999 |
| 44 | `CN1CCN(Cc2cnc3n2CCN(C(=O)c2ccncc2)C3)CC1` | 15.38 | -1.763 |
| 45 | `CCCn1nc(C)c(-c2cncn2CC2(N(C)C)CCC(C)CC2)c1C` (configuration not stated) | 6.689 | 2.37 |
| 46 | `CNC(=O)CC1c2cccnc2C(=O)N1Cc1ccccc1` (configuration not stated) | -1.688 | -6.535 |
| 47 | `Cc1cnn(C2CCCN(C(=O)c3ccc(O)nc3)C2)c1` (configuration not stated) | -59.29 | 2.863 |
| 48 | `O=C(Nc1ccccc1CCO)c1cccc(CN2CC[C@H](O)C2)c1` | 13.24 | -8.876 |
| 49 | `CC(C)(C)n1ncc2c(=O)[nH]c(N3CCC4(CCCCC4)C3)nc21` | 30.5 | 10.6 |
| 50 | `O=C(Cn1cc(Cl)cn1)Nc1ccc2c(c1)OCCCO2` | -0.8795 | 16.67 |
| 51 | `CSc1ccc(NCC(=O)Nc2c(C)nn(C)c2C)cc1F` | 24.67 | -6.958 |
| 52 | `Cc1c(Br)cccc1CSc1nnc(CO)n1C` | - | -9.6 |
| 53 | `CC1COCCN1c1ncnc2sccc12` (configuration not stated) | 19.08 | 13.1 |
| 54 | `CC(C)(C)NC(=O)N1CCCn2nc(C(=O)Nc3ccccc3)cc2C1` | 16.42 | -1.25 |
| 55 | `O=C(CCc1ccccc1F)NS(=O)(=O)c1ccc2c(c1)OCCO2` | -22.8 | -5.66 |
| 56 | `O=C(NC1(c2nnn(CC3CC3)n2)CCCC1)c1ccccc1` | -7.736 | -29.27 |
| 57 | `CCOC(=O)c1coc(N2CCC(C(O)CC(C)C)CC2)n1` (configuration not stated) | 22.97 | -2.987 |
| 58 | `CN(C(=O)c1ccn(C)n1)[C@@H]1CCC[C@@H](Oc2ccccc2)[C@@H]1O` | -13.58 | -12.55 |
| 59 | `CSc1ncccc1C(=O)N1CCC2(CC1)c1nc[nH]c1CCN2C` | 0.7622 | 14.79 |
| 60 | `Cc1cnn(CCNCc2c(C(C)C)nn(C)c2Cl)c1` | -13.5 | -22.49 |
| 61 | `Cc1c(S(=O)(=O)N2CCCC2c2nnc(-c3ccsc3)o2)cnn1C` (configuration not stated) | 8.379 | -4.973 |
| 62 | `O=C(CCCc1nc(-c2ccccc2)no1)N1CCN(CCO)CC1` | - | -26 |
| 63 | `CC(NS(C)(=O)=O)C(=O)N(C)Cc1cnn(-c2ccc(F)cc2)c1` (configuration not stated) | -14.66 | -20.75 |
| 64 | `Cn1cc(C(=O)CC2CCCN2C(=O)c2c[nH]c3ccccc23)cn1` (configuration not stated) | -37.87 | -0.9757 |
| 65 | `COc1ccc(OCCc2sc(C3(O)CCCNCC3)nc2C)cc1.Cl` (configuration not stated) | 0.9783 | -5.99 |
| 66 | `Cc1nc(Nc2cnccn2)cc(C2CCCN2)n1.Cl` (configuration not stated) | -51.16 | -30.38 |
| 67 | `CC(C)(C)CC(=O)NC[C@H]1OC[C@@H](NCc2ccccn2)[C@@H]1O` | -16.83 | -29.51 |
| 68 | `CCc1n[nH]c(C2CN(Cc3nnc(C4CCC4)o3)CCO2)n1` (configuration not stated) | - | -16.86 |
| 69 | `CCc1c(C)nc(SCc2ccccn2)[nH]c1=O` | 11.8 | 33.29 |
| 70 | `Cn1ccc(C(=O)NCc2ccc(N3CCCC3)nc2)cc1=O` | - | -5.812 |
| 71 | `CCCC(=O)NCc1cc(Br)c(OC)c(OC)c1` | 22.3 | -4.682 |
| 72 | `CC(C)Oc1ccc(CNC(=O)C2CCS(=O)(=O)C2)cn1` (configuration not stated) | -17.62 | -25.56 |
| 73 | `CCCOCCN1CCC2(CC1)CC(c1ccccc1)C(=O)N2C` (configuration not stated) | -9.308 | -6.357 |
| 74 | `COCc1nc(C(=O)N2CCCC2c2cccs2)cs1` (configuration not stated) | 4.779 | -7.721 |
| 75 | `CC(=O)NCC(=O)NCC1(O)CCN(c2cnccn2)C1` (configuration not stated) | -29.75 | -25.88 |
| 76 | `COc1ncccc1CNCc1c(C(C)C)nn(C)c1N(C)C` | 63.07 | 13.78 |
| 77 | `O=C(c1ccc(-n2cccn2)nc1)N1CCCC(c2cnccn2)C1` (configuration not stated) | -3.205 | 2.652 |
| 78 | `N#Cc1c(Cl)nsc1NCC1(c2ccccc2)CCC1` | 31.93 | 26.48 |
| 79 | `COCCNc1nc2c(c(NCc3ccncc3)n1)CCNCC2` | - | -8.417 |
| 80 | `CC(C)S(=O)(=O)CC(=O)N(Cc1ccsc1)c1ccccc1` | 18.03 | 0.7 |

For reference, 5 entries once more:

Cc1c(Br)cccc1CSc1nnc(CO)n1C read B: -9.6%.
Cn1cccc1C(CNC(=O)COc1ccc(Cl)cc1Cl)N1CCCC1 (configuration not stated) read A: 27.47%; B: 12.91%.
Cn1ccnc1SCCNc1cc(N2CCOCC2)ncn1 read B: -20.98%.
CC(C)(C)n1ncc2c(=O)[nH]c(N3CCC4(CCCCC4)C3)nc21 read A: 30.5%; B: 10.6%.
CCc1n[nH]c(C2CN(Cc3nnc(C4CCC4)o3)CCO2)n1 (configuration not stated) read B: -16.86%.